Consider one sequence from PMC8384837.

Positions count from the first letter of the chain named. This is one part of the list.

Conditions in all cases: yeast three-hybrid, YBZ-1, SC-Leu-His + 0.5 mM 3-AT, 4 days
The target of assay [1] is T1, PUM1 PUF domain R4-FGR N971F + H972G + Q975R (Homo sapiens) (UniProt Q14671).
T1 sequence: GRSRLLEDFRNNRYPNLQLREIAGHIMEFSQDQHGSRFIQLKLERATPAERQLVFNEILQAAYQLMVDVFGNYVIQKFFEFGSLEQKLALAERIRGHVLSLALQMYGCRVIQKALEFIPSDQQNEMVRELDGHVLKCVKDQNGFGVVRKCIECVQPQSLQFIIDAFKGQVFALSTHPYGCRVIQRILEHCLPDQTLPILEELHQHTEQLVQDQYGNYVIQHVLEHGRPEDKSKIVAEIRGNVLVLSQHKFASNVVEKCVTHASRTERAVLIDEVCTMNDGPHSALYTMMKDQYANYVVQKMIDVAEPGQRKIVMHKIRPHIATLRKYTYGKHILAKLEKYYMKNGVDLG

Assay [2] has as its target T2, PUM1 PUF domain R4-FNC N971F + H972N + Q975C (Homo sapiens) (UniProt Q14671).
T2 sequence: T1 sequence with G145N, R148C

Assay [3] concerns the target T3, PUM1 PUF domain R4-GNV N971G + H972N + Q975V (Homo sapiens) (UniProt Q14671).
T3 sequence: T1 sequence with F144G, G145N, R148V

Assay [4] deals with T4, PUM1 PUF domain R4-NNG H972N + Q975G (Homo sapiens) (UniProt Q14671).
T4 sequence: T1 sequence with F144N, G145N, R148G

Assay [5] concerns the target T5, PUM1 PUF domain R4-PHK N971P + Q975K (Homo sapiens) (UniProt Q14671).
T5 sequence: T1 sequence with F144P, G145H, R148K

Assay [6] has as its target T6, PUM1 PUF domain R4-PYE N971P + H972Y + Q975E (Homo sapiens) (UniProt Q14671).
T6 sequence: T1 sequence with F144P, G145Y, R148E

The target of assay [7] is T7, PUM1 PUF domain R4-PYL N971P + H972Y + Q975L (Homo sapiens) (UniProt Q14671).
T7 sequence: T1 sequence with F144P, G145Y, R148L

Assay [8] addresses T8, PUM1 PUF domain R4-SNR N971S + H972N + Q975R (Homo sapiens) (UniProt Q14671).
T8 sequence: T1 sequence with F144S, G145N

Assay [9] deals with T9, PUM1 PUF domain R4-VNA N971V + H972N + Q975A (Homo sapiens) (UniProt Q14671).
T9 sequence: T1 sequence with F144V, G145N, R148A

Assay [10] concerns the target T10, PUM1 PUF domain R4-VNT N971V + H972N + Q975T (Homo sapiens) (UniProt Q14671).
T10 sequence: T1 sequence with F144V, G145N, R148T

For assay [11], the target named is T11, PUM1 PUF domain R4-VNV N971V + H972N + Q975V (Homo sapiens) (UniProt Q14671).
T11 sequence: T1 sequence with F144V, G145N, R148V

Assay [12] deals with T12, PUM1 PUF domain R5-CKR R1008K + Q1011R (Homo sapiens) (UniProt Q14671).
T12 sequence: T1 sequence with F144N, G145H, R148Q, R181K, Q184R

Assay [13] addresses T13, PUM1 PUF domain R5-FHI C1007F + R1008H + Q1011I (Homo sapiens) (UniProt Q14671).
T13 sequence: T1 sequence with F144N, G145H, R148Q, C180F, R181H, Q184I

The target in assay [14] is T14, PUM1 PUF domain R5-HRS C1007H + Q1011S (Homo sapiens) (UniProt Q14671).
T14 sequence: T1 sequence with F144N, G145H, R148Q, C180H, Q184S

For assay [15], the target named is T15, PUM1 PUF domain R5-KAT C1007K + R1008A + Q1011T (Homo sapiens) (UniProt Q14671).
T15 sequence: T1 sequence with F144N, G145H, R148Q, C180K, R181A, Q184T

Assay [16] deals with T16, PUM1 PUF domain R5-KGN C1007K + R1008G + Q1011N (Homo sapiens) (UniProt Q14671).
T16 sequence: T1 sequence with F144N, G145H, R148Q, C180K, R181G, Q184N

Assay [17] has as its target T17, PUM1 PUF domain R5-RNR C1007R + R1008N + Q1011R (Homo sapiens) (UniProt Q14671).
T17 sequence: T1 sequence with F144N, G145H, R148Q, C180R, R181N, Q184R

The target of assay [18] is T18, PUM1 PUF domain R5-RQQ C1007R + R1008Q (Homo sapiens) (UniProt Q14671).
T18 sequence: T1 sequence with F144N, G145H, R148Q, C180R, R181Q

Assay [19] concerns the target T19, PUM1 PUF domain R5-SKN C1007S + R1008K + Q1011N (Homo sapiens) (UniProt Q14671).
T19 sequence: T1 sequence with F144N, G145H, R148Q, C180S, R181K, Q184N

In assay [20] the target is T20, PUM1 PUF domain R5-WHR C1007W + R1008H + Q1011R (Homo sapiens) (UniProt Q14671).
T20 sequence: T1 sequence with F144N, G145H, R148Q, C180W, R181H, Q184R

Take “GGCUAGAACUAGUGGAUCCCCCGGCGCCCGGCGGCUCGAGCCCGGGUAAGUGUAAAUAGUCUGCAUGCCGCCGGGCGCCAUGCCUGCAGGUCGACUCUAGAAAACAUG”: the binding signal (log2 enrichment (interaction score)) was -2.39 in assay [1]; -1.49 in assay [2]; -2.49 in assay [3]; -1.79 in [4]; -2.5 in assay [5]; -3.13 in assay [6]. The binding signal (log2 enrichment (interaction score)) is -2.19 in assay [7]; -2 in assay [8]; -1.66 in assay [9]; -2.67 in assay [10]; -2.46 in assay [11]; 1.16 in assay [12]. Further, the binding signal (log2 enrichment (interaction score)) in assay [13] was determined as 1.57; in assay [14] it was 0.92; in assay [15], 0.89; in assay [16] it was 1.02; in assay [17], 0.78; in assay [18], 0.95. The binding signal (log2 enrichment (interaction score)) in [19] amounted to 0.83; in assay [20], 1.02.
